In patent US20240207457A1, “CANCER-SPECIFIC POLYPEPTIDE AND USE THEREOF” (THE CATHOLIC UNIVERSITY OF KOREA INDUSTRY-ACADEMIC …, priority 2021, published 2024):
These are yes or no findings as the source states them, for the method shown. Some binding calls cover weakened binding; strength is not graded here.

Biological target: T1, LGR5 protein on gastric cancer cell lines (AGS, MKN45, MKN28) (UniProt O75473)
T1 sequence (looked up): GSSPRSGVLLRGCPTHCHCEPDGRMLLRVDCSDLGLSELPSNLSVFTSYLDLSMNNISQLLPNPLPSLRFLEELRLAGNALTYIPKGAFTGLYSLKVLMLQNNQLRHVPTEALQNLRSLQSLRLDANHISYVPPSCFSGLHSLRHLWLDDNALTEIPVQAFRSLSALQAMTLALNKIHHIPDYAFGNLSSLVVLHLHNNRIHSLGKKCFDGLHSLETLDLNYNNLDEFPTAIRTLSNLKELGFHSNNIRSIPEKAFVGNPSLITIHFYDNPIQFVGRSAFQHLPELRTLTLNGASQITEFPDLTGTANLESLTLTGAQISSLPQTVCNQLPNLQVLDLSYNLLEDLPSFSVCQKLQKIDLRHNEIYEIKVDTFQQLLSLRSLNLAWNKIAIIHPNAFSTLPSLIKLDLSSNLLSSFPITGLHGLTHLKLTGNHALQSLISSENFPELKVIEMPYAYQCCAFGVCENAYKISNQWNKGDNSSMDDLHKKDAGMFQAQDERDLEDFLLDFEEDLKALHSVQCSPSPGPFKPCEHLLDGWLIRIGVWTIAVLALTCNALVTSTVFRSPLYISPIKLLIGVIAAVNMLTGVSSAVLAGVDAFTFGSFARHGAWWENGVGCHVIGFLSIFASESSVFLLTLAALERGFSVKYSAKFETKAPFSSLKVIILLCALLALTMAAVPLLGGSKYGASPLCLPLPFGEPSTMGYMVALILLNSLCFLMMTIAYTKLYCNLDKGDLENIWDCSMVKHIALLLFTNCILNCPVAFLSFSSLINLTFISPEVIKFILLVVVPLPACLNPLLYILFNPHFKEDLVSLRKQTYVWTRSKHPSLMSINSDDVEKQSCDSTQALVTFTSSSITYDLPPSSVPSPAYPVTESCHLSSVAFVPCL
Assay: FITC staining of AGS, MKN45 and MKN28 cells versus CCD841 cells

STCTRSR (peptide, not shown: large carriers, FITC bound to the phage (site not stated)) [phage No. 24 bound to FITC]
binding: binds
